Results from paper PMC12670160, “A drug-repurposing screen of FDA- and EMA-approved drugs identifies two NF-κB inhibitors active against eumycetoma” (Journal of Antimicrobial Chemotherapy, 2025).
Structures can show the parent of a compound that is named as a salt. About 130 (2.5%) of roughly 5,300 compounds showed an effect of 50% or more. The list shows a part of the results. Numbered stars: 1 amine (or outer) side, 2 acyl side, 3 side chain; on linkers, the order of the positions; unused ones are H or OH. Bridge positions count the residues as written; N and C are the ends. Square brackets hold non-standard residues; d marks the D form. Peptide text beside a SMILES is read from it. * marks the point of attachment. hTyr(3S-OH,4S-OH,3'-OSO3H) = N[C@H](C(=O)O)[C@H](O)[C@@H](O)c1ccc(O)c(OS(=O)(=O)O)c1; Orn(4R-OH,5R-OH) = O=C([C@H](C[C@@H](O)[C@@H](O)N[*:3])N[*:1])[*:2]; Pro(3S-OH,4S-Me) = C[C@H]1CN[C@H](C(=O)O)[C@H]1O; X3 = CCCCCOc1ccc(-c2cc(-c3ccc(C(=O)*)cc3)no2)cc1; Gln(3R-OH) = NC(=O)C[C@@H](O)[C@H](N)C(=O)O; Hyp = O=C(O)[C@@H]1C[C@@H](O)CN1

test system: M. mycetomatis strain mm55; settings: primary screen, metabolic activity vs growth control; 96 h, 2 µM; inhibitor

Going from COc1cc(C(=O)N(CCC2CCCN2C)C/C(C)=C/c2ccccc2F)cc(OC)c1OC (stereo not drawn) [ONC0000182, vuf11207 fumarate] to COc1cc2nc(N(C)CCCNC(=O)C3CCCO3)nc(N)c2cc1OC (stereo not drawn) [ONC0005522, alfuzosin hydrochloride], the “% viability” value rises from 91.37% to 118.4%.

Going from N#CSc1cc(SC#N)c(N)nc1N [ONC0004825, pr619] to CC(C)n1nc(-c2ccc3oc(N)nc3c2)c2c(N)ncnc21 [ONC0005031, ink 128 mln0128], the “% viability” value falls from 126.7% to 118.6%.

First: CS(=O)(=O)c1ccc([C@@H](CC2CCCC2)C(=O)Nc2nccs2)cc1 [ONC0001248, ro 281675]
Second: Oc1ccc(OC2CCCCO2)cc1 (stereo not drawn) [ONC0004709, deoxyarbutin]
The “% viability” value of the first is lower: 68.47% for the first, 107.9% for the second.

Going from Nc1nc(O)c2ncn(COC(CO)CO)c2n1 [ONC0003983, ganciclovir hydrate] to Nc1ncnc2c1ncn2[C@@H]1O[C@H](CO)[C@@H](O)[C@H]1O [ONC0000330, adenosine], the “% viability” value falls from 92.25% to 75.96%.

Going from C[N+](C)(C)CCCCCCCCCC[N+](C)(C)C [ONC0003988, decamethonium bromide] to CCCCCCCCCCCCCCCC(=O)OC[C@@H](NC(=O)C(Cl)Cl)[C@H](O)c1ccc([N+](=O)[O-])cc1 [ONC0000763, chloramphenicol palmitate], the “% viability” value rises from 53.62% to 71.55%.

Going from c1ccc2nc(N3CCNCC3)ccc2c1 [ONC0001514, quipazine] to Clc1ccc(Cn2c(CN3CCCC3)nc3ccccc32)cc1 [ONC0003977, clemizole hydrochloride], the “% viability” value falls from 69.69% to 58.3%.

First: CC(=O)O[C@]1(C(C)=O)CC[C@H]2[C@@H]3CCC4=CC(=O)CCC4=C3[C@@H](c3ccc(N(C)C)cc3)C[C@@]21C [ONC0004764, ulipristal acetate]
Second: CC1(C)CCC(C)(C)c2cc(NC(=O)c3ccc(C(=O)O)cc3)ccc21 [ONC0004789, tamibarotene]
The “% viability” value of the first is lower: 66.83% for the first, 98.3% for the second.

Compared with CCCCCOc1ccc(-c2cc(-c3ccc(C(=O)N[C@H]4C[C@@H](O)[C@@H](O)NC(=O)[C@@H]5[C@@H](O)[C@@H](C)CN5C(=O)[C@H]([C@H](O)CC(N)=O)NC(=O)[C@H]([C@H](O)[C@@H](O)c5ccc(O)c(OS(=O)(=O)O)c5)NC(=O)[C@@H]5C[C@@H](O)CN5C(=O)[C@H]([C@@H](C)O)NC4=O)cc3)no2)cc1 [ONC0002269, micafungin sodium] (X3-[Orn(4R-OH,5R-OH)]T[Hyp][hTyr(3S-OH,4S-OH,3'-OSO3H)][Gln(3R-OH)][Pro(3S-OH,4S-Me)]; lactam 1-C), COc1cc(C[C@@H](CO[C@@H]2O[C@H](CO)[C@@H](O)[C@H](O)[C@H]2O)[C@H](CO[C@@H]2O[C@H](CO)[C@@H](O)[C@H](O)[C@H]2O)Cc2ccc(O)c(OC)c2)ccc1O [ONC0000280, secoisolariciresinol diglucoside] is higher in “% viability” value: 64.37% for the first, 88.73% for the second.

Compared with CC(C)(COP(=O)(O)OP(=O)(O)OC[C@H]1O[C@@H](n2cnc3c(N)ncnc32)[C@H](O)[C@@H]1OP(=O)(O)O)[C@@H](O)C(=O)NCCC(=O)NCCS [ONC0003793, coenzymea], C[C@@H](NC(=O)c1ncnc(N)c1Cl)c1ncc(C(=O)Nc2cc(C(F)(F)F)c(Cl)cn2)s1 [ONC0000780, tak580] is lower in “% viability” value: 73.65% for the first, 67.96% for the second.

Compared with CC(C)OC(=O)Nc1cccc(Cl)c1 [ONC0005285, chlorpropham], N=C(N)NC(=O)Cc1c(Cl)cccc1Cl [ONC0003946, guanfacine hydrochloride] is higher in “% viability” value: 93.59% for the first, 101.8% for the second.

First: CCCCc1nc2cc(/C=C/C(=O)NO)ccc2n1CCN(CC)CC [ONC0004854, sb939 pracinostat]
Second: O=C(O)/C=C/c1ccc(O)c(O)c1 [ONC0004666, caffeic acid]
The “% viability” value of the first is lower: 97.96% for the first, 113% for the second.

Compared with CC1(C)CC(=O)c2c(C(F)(F)F)nn(-c3ccc(C(N)=O)c(N[C@H]4CC[C@H](O)CC4)c3)c2C1 [ONC0005078, snx2112], O=C(NCC(=O)N1CC[C@H](N[C@H]2CC[C@@](O)(c3ccc(-c4ncccn4)cn3)CC2)C1)c1cccc(C(F)(F)F)c1 [ONC0000949, pf4136309] is lower in “% viability” value: 82.8% for the first, 65.66% for the second.

Going from O=C(Nc1cc(C(F)(F)F)cc(C(F)(F)F)c1)c1cnc(Cl)nc1C(F)(F)F [ONC0001396, sp100030] to CC(=O)Nc1nc2c(Oc3cc(-c4ccc(C(F)(F)F)cc4)ncn3)cccc2s1 [ONC0005152, amg517], the “% viability” value falls from 126.3% to 112.5%.

Going from CNCCn1c(=O)c2cc(OC)c(OC)cc2c2cnc3cc4c(cc3c21)OCO4 [ONC0000973, genz644282] to C[n+]1cc2c3c(ccc2c2ccc4cc5c(cc4c21)OCO5)OCO3 [ONC0003337, sanguinarium chloride], the “% viability” value rises from 79.82% to 90.16%.

First: Oc1ccc2ccccc2c1SSc1c(O)ccc2ccccc12 [ONC0002579, ipa3]
Second: O=C1Nc2ccccc2/C1=C1/Nc2ccccc2C1=O [ONC0004979, indirubin]
The “% viability” value of the first is lower: 67.38% for the first, 137.7% for the second.

Going from CCN(CC)c1ccc(C(=C2C=CC(=[N+](CC)CC)C=C2)c2ccccc2)cc1 [ONC0002765, brilliant green] to CN(c1ccc(NC(=O)Nc2ccccc2)cc1)S(=O)(=O)c1cnn(-c2ccc(F)cc2)c1 [ONC0000106, btt3033], the “% viability” value falls from 123.8% to 71.15%.

Compared with CN1C[C@@H]2C[C@H]1CN2c1cc2c(cc1F)c(=O)c(C(=O)O)cn2C1CC1 [ONC0004469, danofloxacin mesylate], C=C[C@H]1C[N@@]2CC[C@H]1C[C@H]2[C@H](O)c1ccnc2ccc(OC)cc12 [ONC0003402, quinine] is lower in “% viability” value: 127% for the first, 78.04% for the second.

Compared with CC(C)c1ccc(-c2cc(=O)c3ccccc3o2)cc1 [ONC0001399, mn64], CC(C(=O)O)c1ccc2c(c1)Cc1ccccc1-2 (stereo not drawn) [ONC0003773, cicloprofen] is higher in “% viability” value: 92.86% for the first, 135.8% for the second.

Compared with CC(C)(C)c1onc(O)c1CC(N)C(=O)O (stereo not drawn) [ONC0000802, atpa], O=C(O)C(O)Cc1ccc(O)c(O)c1 (stereo not drawn) [ONC0004733, sodium danshensu] is higher in “% viability” value: 76.03% for the first, 106.7% for the second.

Compared with O=C(O)CC(O)(CC(=O)O)C(=O)O [ONC0005429, citricacid], COc1cc(O)c(C(=O)c2ccccc2)cc1S(=O)(=O)O [ONC0004165, sulisobenzone] is lower in “% viability” value: 123% for the first, 72.74% for the second.

Going from COC(=O)C1=C(C)NC(C)=C(C(=O)NCCCN2CCC(c3ccccc3)(c3ccccc3)CC2)C1c1ccc([N+](=O)[O-])cc1 (stereo not drawn) [ONC0003562, snap5089] to COc1ccc(C(C)(C)C)cc1CN[C@H]1C2CCN(CC2)[C@H]1C(c1ccccc1)c1ccccc1 [ONC0000986, maropitant], the “% viability” value falls from 140.9% to 66.63%.

Compared with C[C@]12CC/C(=N\OCCN)C[C@@H]1C(=O)C[C@@H]1[C@@H]2CC[C@]2(C)C(=O)CC[C@@H]12 [ONC0001347, istaroxime hydrochloride], CC1(C)S[C@@H]2C(N3C(=O)[C@@H](c4ccccc4)NC3(C)C)C(=O)N2[C@H]1C(=O)O (stereo partly drawn) [ONC0000520, hetacillin potassium] is lower in “% viability” value: 80.9% for the first, 62.89% for the second.

Going from Nc1cccc2c1C(=O)N(C1CCC(=O)NC1=O)C2=O (stereo not drawn) [ONC0004843, pomalidomide] to O=C1C[C@@H](c2ccc(O)cc2)Oc2cc(O)ccc21 [ONC0003300, liquiritigenin], the “% viability” value falls from 119.6% to 62.96%.

Going from CC(C)=CCC[C@]1(C)C=Cc2c(O)c3c(c(CC=C(C)C)c2O1)O[C@]12C(=C[C@@H]4C[C@H]1C(C)(C)O[C@@]2(C/C=C(/C)C(=O)O)C4=O)C3=O [ONC0002067, gambogic acid] to COc1cc(C(=O)O)ccc1NC(=O)[C@@H]1N[C@@H](CC(C)(C)C)[C@](C#N)(c2ccc(Cl)cc2F)[C@H]1c1cccc(Cl)c1F [ONC0005541, idasanutlin], the “% viability” value rises from 76.73% to 130.7%.

Compared with OCC(O)COc1ccc(Cl)cc1 (stereo not drawn) [ONC0002159, chlorphenesin], Cc1ccc(CC2(O)CCN(CCOc3ccc(O)cc3)CC2)cc1 [ONC0003038, co101244] is higher in “% viability” value: 67.41% for the first, 108.4% for the second.

Compared with N[C@@H](Cc1cc(I)c(Oc2cc(I)c(O)c(I)c2)c(I)c1)C(=O)O [ONC0005615, levothyroxine], Cc1cc(C)c(Nc2ccnc(Nc3ccc(C#N)cc3)n2)c(C)c1 [ONC0004833, dapivirine tmc120] is lower in “% viability” value: 152.7% for the first, 131.1% for the second.

Going from CN(C)C(=S)SC(=S)N(C)C [ONC0003360, tetramethylthiuram monosulfide] to Cc1nn(-c2ccccc2)c(C)c1/C=N/N1CCN(Cc2ccccc2)CC1 [ONC0001753, sant1], the “% viability” value rises from 61.8% to 100.3%.

First: O=C(c1ccc(Nc2nccc(-c3cc4ccccc4s3)n2)cc1)N1CCC(N2CCCC2)CC1 [ONC0000238, ikk16]
Second: Clc1ccc(CSC(Cn2ccnc2)c2ccc(Cl)cc2Cl)cc1 (stereo not drawn) [ONC0000678, sulconazole nitrate]
The “% viability” value of the first is lower: 83.32% for the first, 120.3% for the second.

With O=C1Nc2ccccc2C12OCC1(CO2)COC2(OC1)C(=O)Nc1ccccc12 (stereo not drawn) [ONC0002672, jw67] the “% viability” value was 79.91%.
